Entries after “also recorded” stand apart in the source; their conditions may differ. Part of at least one peptide drawing is inferred or uncertain, most often the ends. Ends that are not written are not given here.
Tests used:
living skin equivalent [1] = experiment: Living skin equivalent soaked in AII, neovascularization dose response (Example 13); assay type: in vivo, Swiss nude mice; conditions: soak 0.01-1 mg/ml AII for 10 minutes; day 7; FIG. 31
living skin equivalent [2] = experiment: Engraftment of living skin equivalent at full thickness excision site (Example 11); assay type: in vivo, Swiss nude mice
[3] = intracerebroventricular infusion at concentrations 1,000 times higher than that of AII; cited from earlier work
[4] = test system: full thickness dermal wounds; experiment: Healing of full thickness dermal wounds with AII fragments (Example 5); assay type: in vivo, Sprague Dawley rats; conditions: 100 μg/wound in 10% carboxymethyl cellulose plus 100 μg on days 1-4; FIGS. 13-21

Molecule	number of vascular channels containing red blood cells at graft interface (living skin equivalent [1])	number of vascular channels containing red blood cells at graft interface (living skin equivalent [2]; 1 mg/ml AII soak, 7 and 9 days post-surgery, FIG. 29)	incorporation of living skin equivalent into full thickness wounds (living skin equivalent [2]; graft soaked 10 minutes in 1 mg/ml AII in lactated Ringer's with 5% dextrose)	effect on blood pressure [3]	wound closure relative to vehicle-treated control [4]
CC[C@H](C)[C@H](NC(=O)[C@H](Cc1ccc(O)cc1)NC(=O)[C@@H](NC(=O)[C@H](CCCNC(=N)N)NC(=O)[C@@H](N)CC(=O)O)C(C)C)C(=O)N[C@@H](Cc1c[nH]cn1)C(=O)N1CCC[C@H]1C(=O)N[C@@H](Cc1ccccc1)C(=O)O [AII, Asp-Arg-Val-Tyr-Ile-His-Pro-Phe]	increase	increased	positive effect on the incorporation		
YIHPF [AII(4-8), Tyr-Ile-His-Pro-Phe]				minimal effect on blood pressure	not to be effective; also recorded: ineffective
